# Assay results: PubChem BioAssay AID1347075 (National Center for Advancing Translational Sciences (NCATS), 2019)
# In all, about 400,000 compounds went through this assay and about 5,500 (1.4%) were called active. Inconclusive results, whose numbers are uncertain, are shown with a selection of clear calls. Calls follow the shape of the dose curve; as a rule, active = well fitted cell-killing curve with a large enough effect; inconclusive = small, poorly fitted or top-dose-only effect, or effect the other way; inactive = flat fitted curve, though single readings scatter. Potencies of inconclusive entries are doubtful fits and often do not repeat.
# Assay: qHTS assay for MDR1-selective chemotherapeutics: Primary screen using the parental adenocarcinoma cell KB-3-1; also: nearly all actives have a fitted effect of over 60% in size
# Settings: KB-3-1 viability, CellTiter-Glo ATP luminescence, 72 h; activity change, negative = cytotoxic: at 46.1 µM (top of the series)
# Procedure, shortened: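 Parental KB-3-1 adenocarcinoma cells in phenol-red-free DMEM with 10% FBS were pin-treated with compounds at several concentrations, incubated 72 h at 37 °C, and viability read by CellTiter-Glo luminescence; concentration-effect curves were fitted after normalization.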
# % is scaled to controls: 0 for no effect and ±100 for the full control effect; potency is read from the fitted curve at half-maximal effect.
Compound,Potency,"activity change, negative = cytotoxic"
O=C(O)c1ccccc1N/N=C\c1ccnc2ccccc12,"inconclusive: 18.4 µM [cytotoxic, single point]",
CC(C)Oc1ccc(C(=O)Nc2ccc3c(c2)n(C)c(=O)n3C)cc1,"inconclusive: 9.2 µM [cytotoxic, partial curve, poor fit]",
Cn1ncc(N=Cc2ccccc2O)c1C(=O)N1CCOCC1,"inconclusive: 29.1 µM [rising, single point]",
CO/N=C(\c1nonc1N)N1CCN(c2ccc(Cl)cc2[N+](=O)[O-])CC1,"inconclusive: 20.6 µM [cytotoxic, single point]",
Cn1cc(S(=O)(=O)N2CCCC2)cc1C(=O)N1CCN(c2cccc(Cl)c2)CC1,"inconclusive: 20.6 µM [cytotoxic, single point]",
COc1cccc(C2=NN(C(=O)c3ccco3)C(O)(C(F)(F)F)C2)c1 (configuration not stated),"inconclusive: 4.11 µM [rising, partial curve, poor fit]",
COC(=O)C1=C(C(=O)OC)[C@@H]2N(C)c3ccccc3[C@@]23C[C@@H](C(=O)OC)N(C(=O)c2ccc(Br)cc2)C3=N1,"inconclusive: 9.2 µM [cytotoxic, partial curve]",
Cc1ccc(-c2csc(/C(C#N)=C/Nc3ccc4c(c3)OCCO4)n2)cc1,inactive,
COc1ccc(N2CCN(C(=O)CCC(=O)N3CCOc4ccc(C)cc43)CC2)cc1,"inconclusive: 25.9 µM [cytotoxic, partial curve, poor fit]",
COc1ccccc1NS(=O)(=O)c1cc(C(=O)NC2CC(C)(C)NC(C)(C)C2)ccc1Cl,inactive,
CCCOC(=O)c1[nH]c2c(c1C)C(=O)CC(c1cccs1)C2 (configuration not stated),active: 0.651 µM,
Cc1onc(-c2ccccc2Cl)c1C(=O)NCc1ccco1,"inconclusive: 5.8 µM [cytotoxic, partial curve, poor fit]",
CC1(C)Cc2c(cnn2-c2cccc(F)c2)C(NC(=O)CSc2ccccn2)C1 (configuration not stated),,inconclusive: -36.3%
C=CCn1c(SCC(=O)c2c(N)n(CCC)c(=O)n(C)c2=O)nc2sc(CC)cc2c1=O,"inconclusive: 25.9 µM [cytotoxic, single point]",
O=C(NC1CCCC1)c1cccc2c1C(=O)c1ccc(/C=C/c3ccccc3)cc1S2(=O)=O,"inconclusive: 14.6 µM [cytotoxic, partial curve]",
COC(=O)[C@@]12CCCCN1[C@H](c1ccc(-c3cccc(Cl)c3)cc1)[C@@H]1C(=O)N(C)C(=O)[C@@H]12,"inconclusive: 29.1 µM [cytotoxic, single point]",
O=S(=O)(NC1c2cccc3cccc(c23)C1N1CCNCC1)c1ccc(Cl)cc1 (configuration not stated),"inconclusive: 13 µM [cytotoxic, partial curve, poor fit]",

# In another format: entries from further up.
Compound	Potency	activity change, negative = cytotoxic
COC(=O)C1=C(C(=O)OC)[C@@H]2N(C)c3ccccc3[C@@]23C[C@@H](C(=O)OC)N(C(=O)c2ccc(Br)cc2)C3=N1	inconclusive: 9.2 µM [cytotoxic, partial curve]	
CCCOC(=O)c1[nH]c2c(c1C)C(=O)CC(c1cccs1)C2 (configuration not stated)	active: 0.651 µM	
